For this experiment, the target named is EGFR (human (endogenous in H520)) (UniProt P00533). Put plainly: co-IP; Protein A/G magnetic beads IP kit, lysates of H520 stable cell lines (H520^VASH2, H520^VASH2-mut) after 20 ng/mL EGF stimulation; rabbit IgG as negative control; western blotting. On the technique in general: A western blot detects proteins with antibodies after separation by electrophoresis.

No constants are given. Whether binding was seen depends on the method and setting. In cells and extracts the contact can be indirect. Some binding calls cover weakened binding; strength is not graded here.

The values below come from paper PMC11499603.

B1: kinesin family member 3C (protein, UniProt O14782 1-793)
chain: MASKTKASEALKVVARCRPLSRKEEAAGHEQILTMDVKLGQVTLRNPRAAPGELPKTFTFDAVYDASSKQADLYDETVRPLIDSVLQGFNGTVFAYGQTGTGKTYTMQGTWVEPELRGVIPNAFEHIFTHISRSQNQQYLVRASYLEIYQEEIRDLLSKEPGKRLELKENPETGVYIKDLSSFVTKNVKEIEHVMNLGNQTRAVGSTHMNEVSSRSHAIFIITVECSERGSDGQDHIRVGKLNLVDLAGSERQNKAGPNTAGGAATPSSGGGGGGGGSGGGAGGERPKEASKINLSLSALGNVIAALAGNRSTHIPYRDSKLTRLLQDSLGGNAKTIMVATLGPASHSYDESLSTLRFANRAKNIKNKPRVNEDPKDTLLREFQEEIARLKAQLEKRGMLGKRPRRKSSRRKKAVSAPPGYPEGPVIEAWVAEEEDDNNNNHRPPQPILESALEKNMENYLQEQKERLEEEKAAIQDDRSLVSEEKQKLLEEKEKMLEDLRREQQATELLAAKYKAMESKLLIGGRNIMDHTNEQQKMLELKRQEIAEQKRREREMQQEMMLRDEETMELRGTYTSLQQEVEVKTKKLKKLYAKLQAVKAEIQDQHDEYIRVRQDLEEAQNEQTRELKLKYLIIENFIPPEEKNKIMNRLFLDCEEEQWKFQPLVPAGVSSSQMKKRPTSAVGYKRPISQYARVAMAMGSHPRYRAENIMFLELDVSPPAVFEMEFSHDQEQDPRALHMERLMRLDSFLERPSTSKVRKSRSWCQSPQRPPPSTTHASLASASLRPATVADHE
In the case of B1, the binding entry is “binds”.
